Laboratory results from patent EP4534086A1, “TREATMENT OF LEUKODYSTROPHY” (priority 2023, dated 2025).
Like-named read-outs stand apart in the source and are kept apart here.

Experiments:
twitcher mice [1] = test system: twitcher mice
[2] = test system: Vimentin and Iba1 / MBP and MOG; settings: twitcher mice, donepezil vs vehicle; p<0.0001
twitcher mice [3] = test system: twitcher mice; remark: listed apart in the source
MBP = settings: cerebellum, donepezil 10 mg/kg/d via drinking water
Iba1 = settings: for Iba1 normalized fluorescence (% baseline): cerebellum
[4] = twitcher mice when sacrificed; 10 mg/kg via drinking water; reduced water consumption at end-stage
Vimentin = settings: for Vimentin normalized fluorescence, molecular layer (ML): ML of cerebellum

## COc1cc2c(cc1OC)C(=O)C(CC1CCN(Cc3ccccc3)CC1)C2 (racemic) [donepezil, (RS)-2-[(1-Benzyl-4-piperidyl)methyl]-5,6-dimethoxy-2,3-dihydroinden-1-one]
Twitcher mice [1]; P27 to P32, vs vehicle, not different from P32 onwards
  body weight: increased trend
Twitcher mice [1]; donepezil vs vehicle
  loss of climbing behavior (climbing score): delayed
  severity of immobility (immobility score): decreased severity
  twitching score: did not reveal any significant difference
Twitcher mice [1]; donepezil vs vehicle, effect from P28 onwards
  delay of appearance of immobility (immobility score): approximately 8 days
[2]
  protein-expression-signature (Vimentin and Iba1 divided by MBP and MOG): significantly attenuated
Twitcher mice [3]; donepezil 10 mg/kg, vehicle-treated 36 days, log-rank p<0.05
  lifespan: ~45 days
Twitcher mice [3]; donepezil oral administration
  life extension: 5 days
MBP; twitcher mice, vehicle twitcher 33 ± 1.7, p = 0.036
  MBP normalized fluorescence (% baseline): 75 ± 13.1%
MBP; wild type mice, vehicle wild type 100 ± 28.7, p = 0.841
  MBP normalized fluorescence (% baseline): 98 ± 13.4%
Iba1; twitcher mice, vehicle 437 ± 44.8, p = 0.036
  Iba1 normalized fluorescence (% baseline): 82 ± 15.2%
Iba1; twitcher mice, vehicle 1061 ± 117, p=0.0714
  mean surface area of Iba1 immunofluorescence: 846 ± 31.2 square micrometers
Iba1; wild type mice, vehicle 100 ± 14.4, p = 0.0079
  Iba1 normalized fluorescence (% baseline): 223 ± 30.0%
Iba1; wild type mice, vehicle 682 ± 39.6, p=0.0952
  mean surface area of Iba1 immunofluorescence: 786 ± 18.1 square micrometers
[4]
  concentration of donepezil in the brains: not detectable
Vimentin; twitcher mice, vehicle 48 ± 10.1, p=1.000
  Vimentin normalized fluorescence, molecular layer (ML): 50 ± 4.3 % baseline
Vimentin; twitcher mice, vehicle twitcher 228 ± 18.1, wild type 100 ± 7.0, p=0.0357
  Vimentin normalized fluorescence, translocation from ML to GL (Figure 2D: white matter, WM): 169 ± 4.4 % baseline
Vimentin; wild type mice, vehicle 100 ± 14.6, p=0.7533
  Vimentin normalized fluorescence, molecular layer (ML): 89 ± 10.1 % baseline
